Laboratory results from patent US11400056B2, “Pharmaceutical composition comprising gallstone solubilizer for treatment of gallbladder disease” (SurgiNex Co., Ltd., priority 2016, dated 2022).
Some entries share one result that the patent states for a list of compounds.

Tests used:
[1] = Evaluation of gallstone dissolution, cholesterol stone; design: species or system human; settings: 37° C., 4 hours; Table 2 and FIG. 1
Experimental: (§1) In order to evaluate the cholesterol stone and pigmented stone dissolution abilities of each of Examples 1 to 3 and Comparative Examples 1 and 2 prepared according to the Preparation Example above, cholesterol stones and pigmented stones removed during surgery of gallstone patients were obtained, thereby preparing gallstones. 0.5 g of each of the prepared gallstones was placed in an Eppendorf tube, and then 0.5 ml of each of the gallstone-dissolving agents of Examples 1 to 3 and Comparative Examples 1 and 2 was added to the Eppendorf tube containing the gallstone. Each tube was left to stand at 37° C. for 4 hours. Thereafter, the gallstone dissolution ability of each compound was evaluated by measuring the mass of the gallstones before and after dissolving the gallstone by treatment with each compound. The results of evaluating the abilities to dissolve cholesterol stones and pigmented stones are shown in Tables 2 and 3 below, respectively, and photographs before and after dissolving the gallstones are comparatively shown in FIGS. 1 and 2, respectively.
(§2) The gallstone dissolution ability was calculated using the following equation: Gallstone dissolution ability (%)=(weight of gallstone after dissolution)/(weight of gallstone before dissolution)×100

[2] = Evaluation of gallstone dissolution, pigmented stone; design: species or system human; settings: 37° C., 4 hours; Table 3 and FIG. 2
Experimental: as §1, §2

[3] = tested on: gallbladder epithelial cells; test: Evaluation of gallbladder epithelial cell cytotoxicity (EZ-Cytox); format: cell-based, human; settings: 5% and 10%, incubated 24 hours, absorbance at 450 nm; FIGS. 3 to 5

Row | SMILES | ability to dissolve the cholesterol stone (in words) [1] | ability to dissolve the pigmented stone (in words) [2] | gallbladder epithelial cell cytotoxicity (in words) [3]
1 | COc1cccc(C)n1 [Example 1, 2-methoxy-6-methylpyridine] | excellent ability to dissolve the cholesterol stone, compared to Comparative Example 1 or 2 | excellent ability to dissolve the pigmented stone | no cytotoxicity at a level equal to or higher than that of Comparative Example 1
2 | COC(=O)c1cccc(C)c1 [Example 2, methyl 3-methylbenzoate] |  |  | no cytotoxicity at a level equal to or higher than that of Comparative Example 1
3 | CC(=O)C1CC1 [Example 3, 1-cyclopropylethanone] | excellent ability to dissolve the cholesterol stone, compared to Comparative Example 1 or 2 | excellent ability to dissolve the pigmented stone | no cytotoxicity at a level equal to or higher than that of Comparative Example 1
